From paper PMC3189220
These are yes or no findings as the source states them, for the method shown. Some binding calls cover weakened binding; strength is not graded here.

Chains of the proteins cited; added tags and fusions are not shown. Residues count along the entry.
GST-AF1 (P04150, residues 77-262): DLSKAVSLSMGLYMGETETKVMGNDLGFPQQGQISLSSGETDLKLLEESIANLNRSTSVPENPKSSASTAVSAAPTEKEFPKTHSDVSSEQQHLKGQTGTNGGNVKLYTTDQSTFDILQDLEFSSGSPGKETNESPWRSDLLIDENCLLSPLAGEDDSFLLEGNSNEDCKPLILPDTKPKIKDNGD
GST-DBD (P04150, residues 398-500): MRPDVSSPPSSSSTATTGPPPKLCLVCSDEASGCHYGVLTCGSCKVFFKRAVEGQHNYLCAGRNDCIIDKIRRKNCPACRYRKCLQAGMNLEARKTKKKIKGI
UniProt P20226: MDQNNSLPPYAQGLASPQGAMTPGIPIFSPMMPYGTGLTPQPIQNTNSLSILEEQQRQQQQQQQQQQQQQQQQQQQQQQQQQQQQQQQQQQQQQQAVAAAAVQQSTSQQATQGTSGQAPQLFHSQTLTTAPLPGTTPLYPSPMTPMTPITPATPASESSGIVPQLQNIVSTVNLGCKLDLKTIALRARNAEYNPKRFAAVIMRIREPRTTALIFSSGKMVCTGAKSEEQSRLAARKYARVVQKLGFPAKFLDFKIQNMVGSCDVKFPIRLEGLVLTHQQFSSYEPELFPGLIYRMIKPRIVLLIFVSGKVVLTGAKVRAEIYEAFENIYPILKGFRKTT

Experiments:
[1] = target: GST-DBD (human) (UniProt P04150); test: pull-down; GST fusion or GST immobilised on glutathione-Sepharose beads; purified JDP-2 or TBPC added, 2 h; washed; SDS-PAGE with Coomassie Blue staining; both purified
[2] = target: GST-AF1 (human) (UniProt P04150); test: as above

binding [1]	binding [2]	Molecule
no binding	binds	TATA box binding protein (TBPC) (from UniProt P20226 1-339)
binds	no binding	jun dimerization protein 2 (JDP2) (protein, UniProt Q8WYK2 1-163) MMPGQIPDPSVTTGSLPGLGPLTGLPSSALTVEELKYADIRNLGAMIAPLHFLEVKLGKRPQPVKSELDEEEERRKRRREKNKVAAARCRNKKKERTEFLQRESERLELMNAELKTQIEELKQERQQLILMLNRHRPTCIVRTDSVKTPESEGNPLLEQLEKK
